The other results are listed elsewhere or left out.
Legend:
Test in all cases: log2 fold change, soluble protein after heating vs DMSO (PISA); higher = thermal stabilisation; K562 cells, 10 uM, 30 min; active = over 0.2 and 3.5 SD of the protein, either way, in both replicates (recomputed)
[1] = compound: COC1=CC=C(C=C1)CN2C=CC3=C2C=C(C=C3)C(=O)NO
In short: (§1)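 K562 cells at 2×10^6 cells/mL were treated for 30 min with 10 μM compound, and aliquots were heated for 3 min over 48°C-58°C before pooling. Extraction used PBS with 0.5% NP-40 at 4°C, and soluble protein was the supernatant after 21,000xg for 90 min, measured by TMTpro 16plex LC-MS/MS with channel sums equalised. Thermal stability values, relative to control samples and from duplicates, are log2 fold changes.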

Sequences of proteins named here, by UniProt entry; tags and fusion partners are left off. A change or cut given only in a name is not applied to a line headed by its entry.
UniProt Q9H633: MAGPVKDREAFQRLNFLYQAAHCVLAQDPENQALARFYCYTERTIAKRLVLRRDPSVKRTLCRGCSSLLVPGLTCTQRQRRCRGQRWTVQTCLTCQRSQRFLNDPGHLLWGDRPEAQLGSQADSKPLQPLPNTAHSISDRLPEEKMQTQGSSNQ
UniProt Q86WX3: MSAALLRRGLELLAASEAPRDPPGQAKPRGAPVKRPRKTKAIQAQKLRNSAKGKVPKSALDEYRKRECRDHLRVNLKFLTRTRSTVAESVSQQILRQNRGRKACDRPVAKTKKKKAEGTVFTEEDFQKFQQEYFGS
UniProt P04843: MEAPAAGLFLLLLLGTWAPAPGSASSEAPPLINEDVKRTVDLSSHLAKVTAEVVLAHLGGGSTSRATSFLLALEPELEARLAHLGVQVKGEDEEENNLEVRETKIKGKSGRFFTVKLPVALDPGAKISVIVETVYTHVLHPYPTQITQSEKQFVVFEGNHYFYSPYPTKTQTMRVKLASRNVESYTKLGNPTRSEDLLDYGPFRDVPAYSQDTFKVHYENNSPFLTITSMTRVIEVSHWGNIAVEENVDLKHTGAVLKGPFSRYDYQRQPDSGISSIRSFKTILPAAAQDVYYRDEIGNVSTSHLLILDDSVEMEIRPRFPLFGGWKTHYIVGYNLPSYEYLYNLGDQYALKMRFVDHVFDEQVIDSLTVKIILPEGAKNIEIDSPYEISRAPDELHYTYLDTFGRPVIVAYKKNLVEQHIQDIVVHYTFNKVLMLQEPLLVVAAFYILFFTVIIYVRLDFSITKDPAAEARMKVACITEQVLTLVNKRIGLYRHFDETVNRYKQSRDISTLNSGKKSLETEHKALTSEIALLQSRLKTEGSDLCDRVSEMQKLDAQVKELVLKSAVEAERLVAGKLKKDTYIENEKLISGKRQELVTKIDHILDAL
UniProt Q13464: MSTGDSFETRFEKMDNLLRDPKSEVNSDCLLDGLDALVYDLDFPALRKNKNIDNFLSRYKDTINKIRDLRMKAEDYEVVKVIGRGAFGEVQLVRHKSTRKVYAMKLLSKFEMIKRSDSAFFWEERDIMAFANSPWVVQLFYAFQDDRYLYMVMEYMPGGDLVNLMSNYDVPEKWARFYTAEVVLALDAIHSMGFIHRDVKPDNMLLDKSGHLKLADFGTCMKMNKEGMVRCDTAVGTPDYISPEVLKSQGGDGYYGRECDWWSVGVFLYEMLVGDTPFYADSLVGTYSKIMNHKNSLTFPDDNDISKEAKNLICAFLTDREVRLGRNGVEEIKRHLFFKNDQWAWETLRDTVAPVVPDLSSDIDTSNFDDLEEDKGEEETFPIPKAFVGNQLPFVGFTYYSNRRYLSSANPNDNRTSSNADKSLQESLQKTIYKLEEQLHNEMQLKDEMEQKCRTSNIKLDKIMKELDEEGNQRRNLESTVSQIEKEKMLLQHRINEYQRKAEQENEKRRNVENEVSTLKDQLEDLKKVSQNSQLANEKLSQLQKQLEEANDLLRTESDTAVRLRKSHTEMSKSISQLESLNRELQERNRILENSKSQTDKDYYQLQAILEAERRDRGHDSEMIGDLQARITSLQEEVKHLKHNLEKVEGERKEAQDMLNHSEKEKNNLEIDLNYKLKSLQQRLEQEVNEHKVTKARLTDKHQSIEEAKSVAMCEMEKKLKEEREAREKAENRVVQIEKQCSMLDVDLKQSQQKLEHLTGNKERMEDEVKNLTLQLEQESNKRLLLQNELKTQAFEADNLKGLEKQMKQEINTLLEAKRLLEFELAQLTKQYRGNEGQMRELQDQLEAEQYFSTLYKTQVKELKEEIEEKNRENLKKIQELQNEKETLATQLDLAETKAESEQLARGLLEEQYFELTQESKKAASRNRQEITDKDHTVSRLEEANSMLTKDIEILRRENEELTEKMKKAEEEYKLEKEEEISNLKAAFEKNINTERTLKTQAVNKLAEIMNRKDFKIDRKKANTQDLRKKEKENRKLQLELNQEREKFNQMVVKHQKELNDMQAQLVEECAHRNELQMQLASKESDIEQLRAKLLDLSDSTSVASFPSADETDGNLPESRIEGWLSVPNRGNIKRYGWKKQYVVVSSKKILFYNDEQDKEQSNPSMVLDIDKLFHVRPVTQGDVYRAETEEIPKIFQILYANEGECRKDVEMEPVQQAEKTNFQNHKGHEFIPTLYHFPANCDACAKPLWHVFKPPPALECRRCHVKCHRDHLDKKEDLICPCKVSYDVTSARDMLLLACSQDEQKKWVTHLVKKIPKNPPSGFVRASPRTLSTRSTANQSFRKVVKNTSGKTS
UniProt Q8N5L8: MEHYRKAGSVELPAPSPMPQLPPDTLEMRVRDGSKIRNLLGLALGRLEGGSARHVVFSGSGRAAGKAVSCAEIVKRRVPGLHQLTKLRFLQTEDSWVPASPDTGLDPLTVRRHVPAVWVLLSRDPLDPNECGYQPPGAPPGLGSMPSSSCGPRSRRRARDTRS
UniProt P13489: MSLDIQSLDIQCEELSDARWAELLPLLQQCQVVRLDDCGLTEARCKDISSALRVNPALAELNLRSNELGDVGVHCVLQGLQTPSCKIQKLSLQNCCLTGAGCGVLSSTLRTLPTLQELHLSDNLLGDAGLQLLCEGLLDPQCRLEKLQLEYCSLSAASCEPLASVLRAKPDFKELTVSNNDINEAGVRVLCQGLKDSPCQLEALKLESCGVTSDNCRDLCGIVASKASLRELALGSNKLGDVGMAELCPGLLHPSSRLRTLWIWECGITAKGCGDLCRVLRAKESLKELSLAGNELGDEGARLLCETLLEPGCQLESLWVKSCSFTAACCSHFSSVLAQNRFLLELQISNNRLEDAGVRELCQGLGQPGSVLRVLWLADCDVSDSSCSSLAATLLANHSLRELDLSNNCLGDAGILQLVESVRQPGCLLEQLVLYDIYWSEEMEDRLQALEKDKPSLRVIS

filanesib = compound: CON(C)C(=O)N1N=C(c2cc(F)ccc2F)S[C@@]1(CCCN)c1ccccc1 [filanesib]
In short: as §1

zotarolimus = compound: CO[C@H]1C[C@@H]2CC[C@@H](C)[C@@](O)(O2)C(=O)C(=O)N2CCCC[C@H]2C(=O)O[C@H]([C@H](C)C[C@@H]2CC[C@H](n3cnnn3)[C@H](OC)C2)CC(=O)[C@H](C)/C=C(\C)[C@@H](O)[C@@H](OC)C(=O)[C@H](C)C[C@H](C)/C=C/C=C/C=C/1C [zotarolimus]
In short: as §1

idasanutlin = compound: COc1cc(C(=O)O)ccc1NC(=O)[C@@H]1N[C@@H](CC(C)(C)C)[C@](C#N)(c2ccc(Cl)cc2F)[C@H]1c1cccc(Cl)c1F [idasanutlin]
In short: as §1

alisertib = compound: COc1cc(Nc2ncc3c(n2)-c2ccc(Cl)cc2C(c2c(F)cccc2OC)=NC3)ccc1C(=O)O [alisertib]
In short: as §1

[2] = compound: COc1cc2nc(-c3cc(F)ccc3O)nc(N[C@@H]3CNC[C@H]3C(C)(C)O)c2cc1OC
In short: as §1

gefitinib = compound: COc1cc2ncnc(Nc3ccc(F)c(Cl)c3)c2cc1OCCCN1CCOCC1 [gefitinib]
In short: as §1

[3] = compound: COc1cccc2cc(-c3nc([C@H]4CC[C@H](C(=O)O)CC4)n4ncnc(N)c34)[nH]c12
In short: as §1

lapatinib = compound: CS(=O)(=O)CCNCc1ccc(-c2ccc3ncnc(Nc4ccc(OCc5cccc(F)c5)c(Cl)c4)c3c2)o1 [lapatinib]
In short: as §1

pictilisib = compound: CS(=O)(=O)N1CCN(Cc2cc3nc(-c4cccc5[nH]ncc45)nc(N4CCOCC4)c3s2)CC1 [pictilisib]
In short: as §1

Measured: log2 fold change

RPS16 (UniProt P62249)
inactive: [1] -0.117 | filanesib 0.092 | zotarolimus 0.025 | idasanutlin 0.093 | alisertib -0.167 | [2] -0.027 | gefitinib -0.014 | [3] -0.199 | lapatinib 0.046 | pictilisib -0.162

RPLP0 (UniProt F8VWV4)
inactive: [1] -0.183 | filanesib -0.045 | zotarolimus -0.114 | idasanutlin 0.477

RPP21 isoform 4 (UniProt Q9H633)
inactive: [1] 0.05 | filanesib -0.055 | zotarolimus 0.15 | idasanutlin 0.082 | alisertib 0.004 | [2] -0.051 | gefitinib -0.047 | [3] 0.026 | lapatinib -0.003 | pictilisib -0.234

RPS12 (UniProt P25398)
inactive: [1] -0.009 | filanesib 0.018 | zotarolimus -0.026 | idasanutlin 0.048 | alisertib -0.17 | [2] -0.057 | gefitinib -0.02 | [3] -0.159 | lapatinib 0.062 | pictilisib -0.033

RPS19BP1 (UniProt Q86WX3)
inactive: [1] -0.343 | filanesib 0.362 | zotarolimus 0.009 | idasanutlin 0.131 | alisertib -0.16 | [2] 0.021 | gefitinib 0.071 | [3] -0.304 | lapatinib 0.087 | pictilisib -0.01

RPL28 (UniProt P46779)
inactive: [1] -0.132 | filanesib 0.688 | zotarolimus 0.014 | idasanutlin 0.339 | alisertib -0.195 | [2] -0.091 | gefitinib -0.136 | [3] -0.505 | lapatinib 0.323 | pictilisib -0.202

Two neighbouring entries already listed, quoted:
RPS12 (UniProt P25398)
inactive: [1] -0.009 | filanesib 0.018 | zotarolimus -0.026 | idasanutlin 0.048 | alisertib -0.17 | [2] -0.057 | gefitinib -0.02 | [3] -0.159 | lapatinib 0.062 | pictilisib -0.033

RPS19BP1 (UniProt Q86WX3)
inactive: [1] -0.343 | filanesib 0.362 | zotarolimus 0.009 | idasanutlin 0.131 | alisertib -0.16 | [2] 0.021 | gefitinib 0.071 | [3] -0.304 | lapatinib 0.087 | pictilisib -0.01

Later entries

RPL37A (UniProt P61513)
inactive: [1] 0.013 | filanesib 0.618 | zotarolimus 0.092 | idasanutlin 0.372 | alisertib -0.215 | [2] -0.098 | gefitinib -0.08 | [3] -0.503 | lapatinib 0.331 | pictilisib -0.052

RPN1 (UniProt P04843)
inactive: [1] -0.017 | filanesib -0.07 | zotarolimus -0.005 | idasanutlin -0.034 | alisertib -0.046 | [2] -0.002 | gefitinib -0.017 | [3] 0.025 | lapatinib -0.041 | pictilisib -0.011

RPS7 (UniProt P62081)
inactive: [1] -0.065 | filanesib 0.251 | zotarolimus -0.031 | idasanutlin 0.143 | alisertib -0.123 | [2] -0.049 | gefitinib -0.063 | [3] -0.303 | lapatinib 0.157 | pictilisib -0.248

RPS11 (UniProt P62280)
inactive: [1] -0.083 | filanesib 0.35 | zotarolimus -0.031 | idasanutlin 0.184 | alisertib -0.144 | [2] -0.053 | gefitinib -0.068 | [3] -0.287 | lapatinib 0.135 | pictilisib -0.251

ROCK1 (UniProt Q13464)
inactive: [1] 0.037 | filanesib -0.028 | zotarolimus 0.003 | idasanutlin -0.005 | alisertib 0.067 | gefitinib -0.012 | [3] -0.005 | lapatinib 0.012 | pictilisib -0.012
active: [2] 0.246

RPL26 (UniProt P61254)
inactive: [1] -0.068 | filanesib 0.147 | zotarolimus 0.064 | idasanutlin 0.196 | alisertib -0.276 | [2] -0.117 | gefitinib -0.147 | [3] -0.558 | lapatinib 0.22 | pictilisib -0.661

RPP25L (UniProt Q8N5L8)
inactive: [1] 0.107 | filanesib 0.012 | zotarolimus -0.002 | idasanutlin 0.069 | alisertib -0.093 | [2] -0.12 | gefitinib 0.054 | [3] -0.068 | lapatinib 0.042 | pictilisib -0.052

RNH1 (UniProt P13489)
inactive: [1] 0.101 | filanesib -0.101 | zotarolimus 0.023 | idasanutlin -0.084 | alisertib -0.02 | [2] -0.002 | gefitinib 0.021 | [3] -0.012 | lapatinib 0 | pictilisib 0.051

RPL34 (UniProt P49207)
inactive: [1] -0.084 | filanesib 0.437 | zotarolimus 0.018 | idasanutlin 0.347 | alisertib -0.221 | [2] -0.188 | gefitinib -0.052 | [3] -0.47 | lapatinib 0.295 | pictilisib -0.239
